Data from patent publication US12129278B2, “High-affinity peptide for tumor necrosis factor alpha and application thereof” (priority 2017, dated 2024).
At least one structure is not confirmed: it was looked up by name or label, or the drawing left a doubt. Where no end group is shown, it is not given here.

Protein sequences, listed by entry. Tags and fused reporters are not part of them. Residues count along the entry.
UniProt P01375, 77-233 limits assumed, species assumed: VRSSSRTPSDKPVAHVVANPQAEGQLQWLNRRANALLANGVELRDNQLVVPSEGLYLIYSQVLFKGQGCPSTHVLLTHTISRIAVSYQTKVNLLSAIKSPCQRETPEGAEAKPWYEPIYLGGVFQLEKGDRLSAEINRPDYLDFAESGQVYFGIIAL

Biological target: TNF-α protein (Homo sapiens, UniProt P01375)
Experiment: ELISA affinity assay of FITC-labeled peptide to coated TNF-α
Format: binding
Settings: ELISA plate coated with 2 μg/ml TNF-α, 2 h, OD 410 nm, read-out: dissociation constant Kd
Protocol: (§1) A 96-well ELISA plate was coated with 2 μg/ml TNF-α solution at 4° C. overnight. Different concentrations of peptide 632 labeled with FITC were added to each well and incubated for 2 h. After incubation, HRP-conjugated anti-FITC monoclonal antibody was added, incubated for 1 h, and then ABTS coloring solution was added. After color development for 1 h, the OD value at 410 nm was measured using a microplate reader, and GraphPad Prism 5 was used for plotting and analysis.
as §1, with “TNF-α protein” for “TNF-α solution”, “overnight. After blocking with BSA, different” for “overnight. Different”

For HYIDFRW [peptide 632, HYIDFRW], the Kd was 138 nM.
